According to the supplement of paper PMC7806825:

System: McpC ligand-binding domain (Salmonella Typhimurium SL1344)
Assay: protein melting temperature (Tm) in presence of compound (degrees C); higher = more thermal stabilisation (possible ligand binding)
Conditions: Biolog plate: PM05; compound stock concentration: 10-20 mM, 2 uL in 10 uL reaction

protein melting temperature | Compound
44.5 | C=C(O[C@@H]1C=C(C(=O)O)C=C[C@H]1O)C(=O)O [Chorismic acid]
44.6 | O=C(O)C1=C[C@@H](O)[C@@H](O)[C@H](O)C1 [(-)Shikimic acid]
